# Results from one PubChem assay

The results are deposited in PubChem (AID504749; NCATS, 2011).

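A panel of P. falciparum strains inside erythrocytes is exposed to compounds for three days, then a DNA-binding dye reports the amount of parasite DNA.
Each compound was titrated across a series from about 0.000037 to 29 µM.
The number is the fitted AC50, the concentration giving a half-maximal change in signal; a lower value means higher potency, whether the curve shows a decrease or an increase.
Calls follow the curve class and fit quality: every row here is inconclusive, covering signal-raising curves and weak, poorly fitted, partial or highest-dose-only inhibition curves.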

Values are in µM.
Every entry below has the call inconclusive.
Only part of the assay is shown, chiefly results filed as inconclusive.
A potency from a partial, single-point or poor curve is only a rough figure.
The first word of each remark tells which way the curve ran; it can be opposite to the aim of the assay.

Compound | setting | fitted potency (µM) | curve
CCC(=O)OC1(c2ccccc2)CCN(C)CC1C (stereo not drawn) | P93_24 | 5.012 | inhibitor, partial curve
CCC(=O)OC1(c2ccccc2)CCN(C)CC1C (stereo not drawn) | CP247 | 3.162 | inhibitor, full curve, poor fit
CCC(=O)OC1(c2ccccc2)CCN(C)CC1C (stereo not drawn) | CP305 | 9.528 | inhibitor, partial curve, poor fit
CCC(=O)OC1(c2ccccc2)CCN(C)CC1C (stereo not drawn) | PC49 | 0.8913 | inhibitor, full curve, poor fit
CCC(=O)OC1(c2ccccc2)CCN(C)CC1C (stereo not drawn) | 7G8 | 5.012 | inhibitor, partial curve
CCC(=O)OC1(c2ccccc2)CCN(C)CC1C (stereo not drawn) | DFO2036 | 15.85 | inhibitor, partial curve, poor fit
CCC(=O)OC1(c2ccccc2)CCN(C)CC1C (stereo not drawn) | CP250 | 17.78 | inhibitor, single point
CCC(=O)OC1(c2ccccc2)CCN(C)CC1C (stereo not drawn) | N140 | 12.59 | inhibitor, partial curve
CCC(=O)OC1(c2ccccc2)CCN(C)CC1C (stereo not drawn) | TAB109 | 12.59 | inhibitor, partial curve
CN1CCCN(C(c2ccccc2)c2ccc(Cl)cc2)CC1 (stereo not drawn) | ECU | 10 | inhibitor, partial curve, poor fit
CN1CCCN(C(c2ccccc2)c2ccc(Cl)cc2)CC1 (stereo not drawn) | CP192 | 6.746 | inhibitor, partial curve
CN1CCCN(C(c2ccccc2)c2ccc(Cl)cc2)CC1 (stereo not drawn) | P94_40 | 11.22 | inhibitor, single point
CN1CCCN(C(c2ccccc2)c2ccc(Cl)cc2)CC1 (stereo not drawn) | CP268 | 8.492 | inhibitor, partial curve
CN1CCCN(C(c2ccccc2)c2ccc(Cl)cc2)CC1 (stereo not drawn) | CP325 | 12 | inhibitor, single point
CN1CCCN(C(c2ccccc2)c2ccc(Cl)cc2)CC1 (stereo not drawn) | FAB9 | 17.78 | inhibitor, single point
CN1CCCN(C(c2ccccc2)c2ccc(Cl)cc2)CC1 (stereo not drawn) | TAB109 | 11.22 | inhibitor, single point
CN1CCCN(C(c2ccccc2)c2ccc(Cl)cc2)CC1 (stereo not drawn) | PC15 | 5.623 | inhibitor, partial curve
CN1CCCN(C(c2ccccc2)c2ccc(Cl)cc2)CC1 (stereo not drawn) | CP185 | 11.22 | inhibitor, partial curve
CN1CCCN(C(c2ccccc2)c2ccc(Cl)cc2)CC1 (stereo not drawn) | CP297 | 13.46 | inhibitor, partial curve, poor fit
CN1CCCN(C(c2ccccc2)c2ccc(Cl)cc2)CC1 (stereo not drawn) | PC26 | 6.746 | inhibitor, partial curve, poor fit
CN1CCCN(C(c2ccccc2)c2ccc(Cl)cc2)CC1 (stereo not drawn) | Dd2 | 4.467 | inhibitor, partial curve
CN1CCCN(C(c2ccccc2)c2ccc(Cl)cc2)CC1 (stereo not drawn) | JCK | 8.912 | inhibitor, single point
CN1CCCN(C(c2ccccc2)c2ccc(Cl)cc2)CC1 (stereo not drawn) | CP266 | 0.0135 | activator
CN1CCCN(C(c2ccccc2)c2ccc(Cl)cc2)CC1 (stereo not drawn) | DIV30 | 0.3381 | inhibitor, full curve, poor fit
CN1CCCN(C(c2ccccc2)c2ccc(Cl)cc2)CC1 (stereo not drawn) | CP305 | 13.46 | inhibitor, partial curve
CN1CCCN(C(c2ccccc2)c2ccc(Cl)cc2)CC1 (stereo not drawn) | CP194 | 15.1 | inhibitor, single point
CN1CCCN(C(c2ccccc2)c2ccc(Cl)cc2)CC1 (stereo not drawn) | 3D7 | 17.78 | inhibitor, single point

Repeated from the top, 3 entries:

| Compound | setting | fitted potency (µM) | curve |
|---|---|---|---|
| `CCC(=O)OC1(c2ccccc2)CCN(C)CC1C` (stereo not drawn) | P93_24 | 5.012 | inhibitor, partial curve |
| `CCC(=O)OC1(c2ccccc2)CCN(C)CC1C` (stereo not drawn) | CP247 | 3.162 | inhibitor, full curve, poor fit |
| `CCC(=O)OC1(c2ccccc2)CCN(C)CC1C` (stereo not drawn) | CP305 | 9.528 | inhibitor, partial curve, poor fit |